Results are given in words; binding and its absence hold for the method and conditions named. Binding can be weak; no strength is given.
Target: ISCU(D39V) (human)
Assay: NMR titration; 2D 1H,15N TROSY-HSQC of [U-15N]-ISCU(D39V) before and after adding 0.5 or 1 molar equivalent of unlabelled apo-NFU1; peak intensity ratios at 0.5 equivalent; both purified

binding: binds
B1: human apo-NFU1 (protein, UniProt Q9UMS0 10-254)
chain: GAAAVAAGLRRRFCHMLKNPYTIKKQPLHQFVQRPLFPLPAAFYHPVRYMFIQTQDTPNPNSLKFIPGKPVLETRTMDFPTPAAAFRSPLARQLFRIEGVKSVFFGPDFITVTKENEELDWNLLKPDIYATIMDFFASGLPLVTEETPSGEAGSEEDDEVVAMIKELLDTRIRPTVQEDGGDVIYKGFEDGIVQLKLQGSCTSCPSSIITLKNGIQNMLQFYIPEVEGVEQVMDDESDEKEANSP

— publication PMC7261492, “ISCU interacts with NFU1, and ISCU[4Fe-4S] transfers its Fe-S cluster to NFU1 leading to the production of holo-NFU1” (Journal of structural biology, 2020)
